Test results published in paper PMC11171801.
No constants are given. Whether binding was seen depends on the method and setting. In cells and extracts the contact can be indirect. Here binding means that the protein was enriched with, or labelled near, the bait; the list need not be complete. Sequences can lack the tags named with a protein.

The chains behind the UniProt entries cited, without tags or fusion partners.
UniProt Q96PY5: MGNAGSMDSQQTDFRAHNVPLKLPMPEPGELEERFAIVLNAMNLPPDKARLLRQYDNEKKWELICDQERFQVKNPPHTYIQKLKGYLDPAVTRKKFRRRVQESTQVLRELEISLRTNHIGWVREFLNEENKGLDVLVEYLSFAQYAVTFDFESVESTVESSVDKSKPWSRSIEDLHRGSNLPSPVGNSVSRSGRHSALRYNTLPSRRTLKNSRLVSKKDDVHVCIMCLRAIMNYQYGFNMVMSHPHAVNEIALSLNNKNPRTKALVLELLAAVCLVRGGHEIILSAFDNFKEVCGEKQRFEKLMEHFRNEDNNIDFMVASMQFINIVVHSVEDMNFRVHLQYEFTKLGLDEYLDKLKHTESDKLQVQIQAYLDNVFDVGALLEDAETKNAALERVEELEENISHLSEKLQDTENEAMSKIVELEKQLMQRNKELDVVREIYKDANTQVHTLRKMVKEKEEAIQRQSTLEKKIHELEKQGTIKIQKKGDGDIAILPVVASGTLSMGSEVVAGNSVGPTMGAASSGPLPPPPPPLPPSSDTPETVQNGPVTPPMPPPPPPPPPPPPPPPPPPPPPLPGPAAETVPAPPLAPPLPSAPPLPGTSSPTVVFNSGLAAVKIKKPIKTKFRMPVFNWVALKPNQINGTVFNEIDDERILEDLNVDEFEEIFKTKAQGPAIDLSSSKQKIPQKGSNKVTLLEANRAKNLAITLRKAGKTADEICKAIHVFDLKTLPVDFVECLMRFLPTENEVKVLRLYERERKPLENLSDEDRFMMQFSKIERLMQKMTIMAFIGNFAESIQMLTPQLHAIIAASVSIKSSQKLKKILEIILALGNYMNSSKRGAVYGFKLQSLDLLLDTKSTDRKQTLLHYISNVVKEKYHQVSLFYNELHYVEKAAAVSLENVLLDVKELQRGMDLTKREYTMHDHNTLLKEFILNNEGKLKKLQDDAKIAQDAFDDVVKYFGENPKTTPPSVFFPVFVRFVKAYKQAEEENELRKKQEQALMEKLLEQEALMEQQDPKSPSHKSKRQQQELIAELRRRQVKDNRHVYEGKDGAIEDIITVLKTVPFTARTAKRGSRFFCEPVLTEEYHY

B1: EGFP-PHACTR4 (protein, UniProt Q8IZ21 1-702)
chain: MEDPFEEADQPTTEPGMVLDSVEAGDTTPPTKRKSKFSGFGKIFKPWKWRKKKSSDKFKETSEVLERKISMRKPREELVKRGVLLEDPEQGGEDPGKPSDAMLKNGHTTPIGNARSSSPVQVEEEPVRLASLRKAIPEEDLKKRLGSTGSQPNSEAESVPENVPKPPLLPPKRPLSSSHEASEGQAKDATSSGGTARFIISTSITTAPAATTAATSLAKTVNLSVTPSPAPRTLPAAPASTNTTATPSLTHMVPAKQPPIPPPKPAHRNSNPVIAELSQAINSGTLLSKPSPPLPPKRGIPSTSVPTLESAAAITTKTPSDEREKSTCSMGSELLPMISPRSPSPPLPTHIPPEPPRTPPFPAKTFQVVPEIEFPPSLDLHQEIPQQEDQKKEVPKRILDQNFGEPHIPSRLPPLPLHIRIQQALTSPLPMTPILEGSHRAHSLLFENSDSFSEDSSTLGRTRSLPITIEMLKVPDDEEEEEQTCPSTFSEEMTPTSVIPKLPQCLREEEEKESDSDSEGPIQYRDEEDEDESYQSALANKVKRKDTLAMKLNHRPSEPELNLNSWPCKSKEEWNEIRHQIGNTLIRRLSQRPTPEELEQRNILQPKNEADRQAEKREIKRRLTRKLSQRPTVAELLARKILRFNEYVEVTDAQDYDRRADKPWTKLTPADKAAIRKELNEFKSSEMEVHEESKHFTRYHRP
B2: GFP-tagged YKT6 (protein, UniProt O15498 1-198)
chain: MKLYSLSVLYKGEAKVVLLKAAYDVSSFSFFQRSSVQEFMTFTSQLIVERSSKGTRASVKEQDYLCHVYVRNDSLAGVVIADNEYPSRVAFTLLEKVLDEFSKQVDRIDWPVGSPATIHYPALDGHLSRYQNPREADPMTKVQAELDETKIILHNTMESLLERGEKLDDLVSKSEVLGTQSKAFYKTARKQNSCCAIM

Target: FMNL2-birA* fusion protein (human) (UniProt Q96PY5)
Test: proximity labelling; BioID validation: tagged candidate coexpressed with FMNL2-birA* in HEK293T/17, overnight biotin, lysis in Co-IP buffer (50 mM Tris pH 7.0, 150 mM NaCl, 0.5% Triton-X-100), precipitated with GFP-trap beads (MARK2: anti-DYKDDDDK beads), biotinylation detected with …

Binder | binding
B1 | binds
B2 | binds
